Test [1] deals with T1, CD300c antigen (11832-H08H, Sino Biological) (UniProt Q08708).
T1 sequence (looked up): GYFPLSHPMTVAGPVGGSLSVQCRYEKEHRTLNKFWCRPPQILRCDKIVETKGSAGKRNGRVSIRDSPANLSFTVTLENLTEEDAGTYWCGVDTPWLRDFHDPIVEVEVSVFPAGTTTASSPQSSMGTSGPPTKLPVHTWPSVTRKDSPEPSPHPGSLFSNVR
Nature of the test: ELISA screen of scFv periplasmic extracts on coated CD300c antigen (Examples 1.2-1.3). A general note: An ELISA detects its analyte on a solid surface through an enzyme-linked reagent.

Test [2] deals with T1, CD300c antigen (11832-H08H, Sino Biological). Nature of the test: binding ELISA, sigmoid curves of FIG. 9.

No constants are given. Whether binding was seen depends on the method and setting. Some results given as binding are weak or reduced against the parent protein; the word gives no strength.

B1: SK12 (antibody, V domains shown)
VH: RVQLLESGGGLVQPGGSLRLSCAASGFTFSSYAMHWVRQAPGKGLEWVSAISGSGGDTYHADSVKGRFTISRDNSKNTLYLQMNSLRAEDTAVYYCTRGLSGFDYWGQGTLVTVSS
VL: EIVLTQSPGTLSLSPGERATLSCRASQSISSYLNWYQQKPGQAPRLLIYDASNRAPGIPDRFSGSGSGTDFTLTISRLEPEDFAVYYCQQSYSIPITFGQGTKVEIKF
Regarding B1, the binding result in test [1] and in test [2] was “binds” in each case.
